The values that follow come from PubChem BioAssay AID1347423 (Functional Genomics Laboratory (NCATS/FGL), 2020).

Among all 52,000 sequences or so, about 210 (0.4%) were called active.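 Rule for the calls: active = gene whose silencing raises cell survival under the drug, median off-target-corrected z-score across its silencing RNAs 2 or more; inactive = the rest.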 The list shows a part of the results.

This test is described as follows: Resistance to Poly (ADP-Ribose) Polymerase inhibitor: Gene Identification via Genome-wide siRNA Screen. The following applies: mouse BRCA2 R2336H ES cells, olaparib, CellTiter-Glo viability; stronger effect = higher value. The method, boiled down: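 Genome-wide siRNA screen (3 siRNAs/gene, 20 nM) in mouse ES cells carrying hypomorphic BRCA2 R2336H; olaparib 500 nM added 48 h post-transfection, CellTiter-Glo viability 72 h later. Normalized to plate-median negative control; MAD z-scores, gene median, seed-adjusted.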
(In ATP-based viability assays light output follows the ATP content of the culture.)
Turning to GGUGCAAUCAGGUAUUUCATT against Olfr917, the z-score is inactive: -2.79.
As for GGUUACAAACAUUUGUGAATT against Rds, the figure is inactive: -1.46.
As for GGUUAUGAAGAUUUCGUUGTT against Myl1, the z-score is inactive: 0.486.
As for AUUACAUGAUGAGCUUGGUTT against Olfr804, the figure is inactive: -0.506.
With GGACUUUGAAGAACUAAGUTT against Tfrc, the z-score was inactive: -1.27.
As for GGCCUAAAUUAUAUUAGGATT against Nyx, the figure is inactive: 1.49; as for CCCAGCAUGGAUCAAGCACTT against Kb36, inactive: 0.103.
As for GGCAAAGUGGAUAAGCAAUTT against Dpp6, the figure is inactive: -0.0686.
Consider GACCCUCGGGCGGAUAAAATT against Nkx2-5, for which the z-score was inactive: -0.837.
For CCAAUUACGCCUUUGUACCTT against Tnk2, the z-score was inactive: 0.391.
As for “GGUUCAGCUUAUGGUAACUTT against D330038K10Rik”, the figure is inactive: -1.74.
Turning to GCUGAACAUCUGGGAUGUATT against Arl2, the z-score is inactive: -0.87.
On to GGACUGGGAACUUCUUGACTT against BC038881, for which the z-score is inactive: 2.19.
The result for GCCGAGACAUAUGCCAAGATT against Dm15 reads inactive: 0.0189.
The result for GGACCUUGGAGAAAUUAGGTT against Nupr1 reads inactive: 0.122; that for GGGUAGCUUUUUUUAUAACTT against Tnfrsf11b, inactive: -0.099; that for CCAAUCCGUGUAUUGGUUATT against Itgb5, inactive: 1.05.
Regarding “GCAGGUCUUACCAGAUCGATT against 2010013E08Rik”, the z-score was inactive: -0.84.
The result for CCUGGAACAAUUUAACCAATT against Mcm6 reads inactive: -1.09; that for GGAUAAGUCAGAGCUAUAUTT against BC038613, inactive: -1.71.
The result for GGUCCUCGGUUACAGAAACTT against Cnr2 reads inactive: 0.655; that for GGAUAUUCAAAGUUACCAATT against Cacna1b, inactive: 2.34.
As for GGUCACCCUCAAGUACCCUTT against Thop1, the figure is inactive: -0.426.
As for GGAGAGCUGGUUCAUCACUTT against Trp53inp1, the z-score is inactive: 1.58.
The result for CGAGCUAAACUCAGGCUCUTT against Mxd4 reads inactive: 1.37; that for GGAAUAGACAUCAAUGUUATT against Ankrd32, inactive: 0.561; that for GGUUGAUUUCACAGAAGAATT against Iqgap1, inactive: -0.664.
The result for CCAGUCGUAGUGAAUUUGUTT against Gm996 reads inactive: -0.426; that for GGAGCACUGAUUUGAUAGATT against Lynx1, inactive: 0.68; that for GGAACUUUAUAGUUAGUGCTT against Sfrs6, inactive: 0.472.
As for “GGACCUGGAGUAUAUGCUGTT against 4933406M09Rik”, the figure is inactive: 0.794.
GGGCAAGGAAUUUAUUACATT against Map2k4: the z-score is inactive: -0.226.
As for “CCCUUGCUAGUCCUUCUAUTT against 6720463M24Rik”, the z-score is inactive: 0.458.
GGAAGACAACAAGGAAGAGTT against Spt1: the z-score was inactive: -0.431.
As to CACUGACCAAAUUAUCACCTT against Olfr763, the z-score is inactive: 0.99.
The result for GGUUAGUCUCUCCAGAAAGTT against Polg2 reads inactive: -0.219; that for “GGUUGUUAAUCAGUGUUUATT against 1110019N10Rik”, inactive: -0.304.
As for GCAUAUCUGUUCAUGAUGATT against Cmya5, the z-score was inactive: 0.579.
As for GCAGCUCAGUUAUUGUCAGTT against Cyp20a1, the z-score is inactive: 0.929.
As for “GGUUUUUGUGGAAAUGUGGTT against 4122402O22Rik”, the figure is inactive: 0.151; as for CGCAGUAACCUGUUUGAGCTT against X83328, inactive: 0.259; as for “GGUAGCUACUCAUAUAUAGTT against E330037G11Rik”, inactive: -2.42.
The result for GGCCCUUCCCAGAUAUGCATT against AU018829 reads inactive: 3.5; that for GCUACGCUAUCCAAAUUCUTT against AF529169, inactive: -0.118; that for CCAUACAUAAAAAGCCGCCTT against Il1rl1, inactive: 0.894.
Turning to “GGCAGCUGUUAUGCUUUUCTT against 1110055L24Rik”, the z-score is inactive: 0.345.
As for “GGACAAUGGCCAUGUUUUATT against 2310030G06Rik”, the figure is inactive: 0.221; as for GGUUGCAUUGUAGGGUUGGTT against Olfr129, inactive: 0.84.
As for “GGUUUUACAUUCUGUGUUUTT against 1700030K01Rik”, the figure is inactive: -0.487; as for “GGUGACUCUACAAGCCUUUTT against 1110011K10Rik”, inactive: 0.111; as for “GCCGACUCUGGAAAUUAUCTT against C130076O07Rik”, inactive: 0.436.
For GCAAAUAUUGGCCACUCUCTT against Prp19, the z-score is inactive: -0.802.
With GGAUCAAGACAAAAAACUUTT against Arhgap17, the z-score was inactive: -0.443.
As for GCUAAGUCCGACUAAGCAUTT against Hmgn1, the figure is inactive: -0.361.
As for GCAUGUCAGACUGGUGCAATT against Smfn, the figure is inactive: 1.34; as for CCACAUCUCGCAAACACGATT against LOC545554, inactive: 0.011; as for CGCAUUAUGCUUGAAAUGUTT against Nefh, inactive: 1.21.
The result for GGGCAACAUUGAAACAAAUTT against Idh3g reads inactive: 2.2; that for GCCAAAGUGCAGAAUUGGUTT against Rhox1, inactive: -0.0467; that for GGCGGUAACCACUUUCACGTT against Nmyc1, inactive: -0.0158.
On to GGAGGAGAGAACAAAAUGUTT against Itgb1bp2, for which the z-score was inactive: 1.06.
As for CCUUGUUAGAGCAUUACAATT against BC021395, the figure is inactive: -0.81; as for CGGCUUAGUAAAUGUGACUTT against Gm443, inactive: 0.965; as for CCGGUAUUCAAUAGCUCUCTT against Cybb, inactive: 0.0779.
GGAUACUCGGGAUCUAGUATT against Anxa11: the z-score was inactive: -1.71.
The result for CGGGAAUCCUAUCUAUCAATT against Smox reads inactive: 2.03.
